The values that follow come from PMC6110521.

Sequences of proteins named here, by UniProt entry; tags and fusion partners are left off.
UniProt Q13547: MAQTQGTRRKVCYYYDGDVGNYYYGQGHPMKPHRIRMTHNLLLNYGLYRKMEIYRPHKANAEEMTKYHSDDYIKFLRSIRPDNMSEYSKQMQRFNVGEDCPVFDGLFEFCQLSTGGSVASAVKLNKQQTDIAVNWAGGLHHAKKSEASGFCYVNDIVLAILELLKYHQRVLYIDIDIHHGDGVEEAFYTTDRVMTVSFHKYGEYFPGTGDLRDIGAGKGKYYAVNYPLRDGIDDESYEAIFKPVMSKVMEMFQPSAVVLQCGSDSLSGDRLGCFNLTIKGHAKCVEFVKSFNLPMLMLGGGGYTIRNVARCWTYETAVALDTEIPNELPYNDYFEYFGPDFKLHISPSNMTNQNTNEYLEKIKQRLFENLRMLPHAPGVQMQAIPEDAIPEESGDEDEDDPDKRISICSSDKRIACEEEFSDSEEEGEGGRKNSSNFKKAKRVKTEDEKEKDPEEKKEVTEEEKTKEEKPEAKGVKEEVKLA
UniProt O09106: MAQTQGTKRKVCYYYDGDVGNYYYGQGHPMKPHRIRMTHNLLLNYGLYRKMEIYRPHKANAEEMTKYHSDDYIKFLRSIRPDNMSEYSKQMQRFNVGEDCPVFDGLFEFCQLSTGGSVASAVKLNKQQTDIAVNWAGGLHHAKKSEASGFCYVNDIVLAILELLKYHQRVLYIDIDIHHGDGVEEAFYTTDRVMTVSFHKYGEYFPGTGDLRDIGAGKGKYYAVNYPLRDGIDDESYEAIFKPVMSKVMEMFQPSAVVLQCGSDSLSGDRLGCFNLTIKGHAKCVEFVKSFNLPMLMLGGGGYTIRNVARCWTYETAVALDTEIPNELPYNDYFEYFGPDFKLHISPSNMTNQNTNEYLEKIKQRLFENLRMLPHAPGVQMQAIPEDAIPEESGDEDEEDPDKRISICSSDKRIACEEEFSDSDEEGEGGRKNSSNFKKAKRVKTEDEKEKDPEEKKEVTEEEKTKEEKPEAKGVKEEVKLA

The target in test [1] is T1, flag-tagged SMYD4 (SMYD4^flag), wild-type human, overexpressed in HL-1 cells (human) (UniProt Q8IYR2).
T1 sequence: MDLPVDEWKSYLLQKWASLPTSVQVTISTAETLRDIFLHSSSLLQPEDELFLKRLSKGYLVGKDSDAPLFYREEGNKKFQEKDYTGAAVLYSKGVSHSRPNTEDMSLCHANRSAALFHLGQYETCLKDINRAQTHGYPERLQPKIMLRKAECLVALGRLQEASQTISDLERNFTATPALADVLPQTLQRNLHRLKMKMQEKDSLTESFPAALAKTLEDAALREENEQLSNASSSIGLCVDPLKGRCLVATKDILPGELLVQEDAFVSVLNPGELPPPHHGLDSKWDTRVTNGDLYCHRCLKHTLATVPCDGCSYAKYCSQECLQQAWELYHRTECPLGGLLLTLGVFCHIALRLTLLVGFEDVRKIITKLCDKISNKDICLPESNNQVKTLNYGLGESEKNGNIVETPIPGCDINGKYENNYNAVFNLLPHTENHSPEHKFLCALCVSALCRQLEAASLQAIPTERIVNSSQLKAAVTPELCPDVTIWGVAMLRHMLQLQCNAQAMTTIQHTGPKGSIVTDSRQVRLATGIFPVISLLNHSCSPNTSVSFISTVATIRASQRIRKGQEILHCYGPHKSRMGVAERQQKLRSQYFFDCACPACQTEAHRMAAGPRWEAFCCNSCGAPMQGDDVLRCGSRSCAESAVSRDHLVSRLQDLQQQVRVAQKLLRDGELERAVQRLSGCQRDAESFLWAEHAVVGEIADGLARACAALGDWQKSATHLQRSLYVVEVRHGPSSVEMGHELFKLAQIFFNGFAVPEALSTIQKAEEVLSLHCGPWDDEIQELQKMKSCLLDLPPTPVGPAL
Kind of test: co-IP; SMYD4^flag (wild type or G345D) overexpressed in HL-1 cells; cell extracts immunoprecipitated with anti-FLAG affinity gel, western blotting.

The target in test [2] is HA-tagged HDAC1 (HDAC1^HA), overexpressed in HEK293T cells (UniProt Q13547). Kind of test: co-IP; SMYD4^flag and HDAC1^HA co-overexpressed in HEK293T cells; co-immunoprecipitation with anti-tag antibodies, western blotting.

Results are given in words; binding and its absence hold for the method and conditions named. Binding seen in cells or lysates may run through a third protein. Some entries that bind do so weakly or less than the wild type. Tags and fused reporters may be left off the sequences shown.

In the case of “histone deacetylase 1 (HDAC1), in HL-1 cells (from UniProt O09106 1-482) (enzyme)”, the binding entry in test [1] is “binds”.

B1: flag-tagged SMYD4 (SMYD4^flag), wild-type human, overexpressed in HEK293T cells (enzyme, UniProt Q8IYR2 1-804)
chain: T1 sequence
On to B1, for which, in test [2], the binding entry was “binds”.
